Measured values reported in PubChem BioAssay AID540276 (National Center for Advancing Translational Sciences (NCATS), 2011).
Several values for one entry are separate records, joined by “and”; a condition that tells them apart may be missing. Equal values may be shown once. The campaign covered roughly 300,000 compounds. About 5,400 (1.8%) were called active. Inconclusive results, whose numbers are uncertain, are shown with a selection of clear calls. Calls follow the shape of the full dose curve; tested in HEK293 cells. A potency beside an inconclusive call is a rough fit, not a confirmed value.

test: qHTS for inhibitors of binding or entry into cells for Marburg Virus; settings: Marburg virus pseudotyped entry inhibition, cell reporter; series mostly up to 37.8 µM
Potency is read from the fitted curve at half-maximal effect.

Question: With `Nc1ccc2c3c(cccc13)C(=O)NC2=O` as the compound, how does the Potency read?
Answer: Its Potency is inconclusive: 7.08 µM [inhibitor, full curve].

Question: Which Potency does the source give for `C=CCC1(C#N)C(SC)=NC2=C(C(=O)CC(C)(C)C2)C1c1ccc(Br)cc1` (stereo unspecified) here?
Answer: The Potency was inconclusive: 0.1 µM [inhibitor, full curve, poor fit].

Question: For `O=c1[nH]cnc2[nH]ncc12`, which Potency is on record?
Answer: Its Potency is inconclusive: 0.02 µM [activator, full curve, poor fit].

Question: With `O=C(Nc1ccc(N2CCN(C(=O)c3ccccc3)CC2)c(Cl)c1)c1ccc(Br)o1` as the compound, how does the Potency read?
Answer: The Potency was “inactive and inconclusive: 29.1 µM [inhibitor, single point]”.

Question: With `O=c1cc(COc2ccc(Cl)c(Cl)c2)nc2sccn12` as the compound, how does the Potency read?
Answer: The Potency was “inactive”.

Question: For `CCOC(=O)C1C(=O)CC(C)(O)C(C(=O)OCC)C1c1cccc(OC(F)(F)C(F)F)c1` (stereo unspecified), which Potency is on record?
Answer: The Potency was inconclusive: 10.3 µM [activator, partial curve].

Question: With `CC(C)c1nc(SCC(=O)N2CCc3ccccc32)n[nH]1` as the compound, how does the Potency read?
Answer: The Potency was “inactive”.

Question: For `Cc1cc(C)cc(N2C(=O)CC(Sc3ncn[nH]3)C2=O)c1` (stereo unspecified), which Potency is on record?
Answer: Its Potency is inconclusive: 2.82 µM [inhibitor, full curve].

Question: With `O=c1c(-c2ccccc2)n[nH]c2ccccc12` as the compound, how does the Potency read?
Answer: The Potency was “inactive”.

Question: With `Cc1ccc(C)c([C@@]2(O)C[C@@H](C)N(C)C[C@H]2C)c1` as the compound, how does the Potency read?
Answer: Its Potency is inconclusive: 1 µM [inhibitor, partial curve, poor fit].

Question: With `CCOc1ccc(NC(=O)CC2SC(=O)N(c3ccccc3)C2=O)cc1` (stereo unspecified) as the compound, how does the Potency read?
Answer: The Potency was “inactive”.

Question: Which Potency does the source give for `Cc1cc(C(=O)C(C)Sc2cccc[n+]2[O-])c(C)n1-c1ccc(Cl)cc1` (stereo unspecified) here?
Answer: The Potency was inconclusive: 11.2 µM [inhibitor, single point].

Question: With `CCOC(=O)c1ccc(N=C2SC(C(=O)NC)CC(=O)N2CCc2ccccc2)cc1` (stereo unspecified) as the compound, how does the Potency read?
Answer: Its Potency is inconclusive: 3.55 µM [activator, single point].

Question: For `O=C1NC(=S)S/C1=C/c1ccc(Oc2cnccn2)cc1`, which Potency is on record?
Answer: Its Potency is inconclusive: 35.5 µM [activator, single point].

Question: Which Potency does the source give for `CCn1cc(Br)c(C(=O)NN)n1` here?
Answer: Its Potency is inconclusive: 14.1 µM [activator, single point].

Question: Which Potency does the source give for `CC(C)(C)c1ccc(C(=O)NCCCN2CCN(CCCNC(=O)c3ccc(C(C)(C)C)cc3)CC2)cc1` here?
Answer: Its Potency is inconclusive: 12.6 µM [inhibitor, partial curve, poor fit].

Question: With `COc1ccc(CNc2nc(-c3ccc(Cl)cc3)nn2S(=O)(=O)c2ccc(C)cc2)cc1` as the compound, how does the Potency read?
Answer: Its Potency is inconclusive: 1.26 µM [inhibitor, partial curve, poor fit].

Question: For `O=C(Nc1ccc(F)cc1)c1cc(S(=O)(=O)N2CCCCC2)cs1`, which Potency is on record?
Answer: Its Potency is inconclusive: 18.3 µM [inhibitor, single point].

Question: With `CC(=O)c1ccc(N(CC(=O)Nc2cc(C)on2)S(=O)(=O)c2ccc(C)cc2)cc1` as the compound, how does the Potency read?
Answer: The Potency was “inactive”.

Question: With `O=C(NCc1ccccc1Cl)c1ccc2nnsc2c1` as the compound, how does the Potency read?
Answer: Its Potency is inconclusive: 3.98 µM [inhibitor, partial curve].

Question: Which Potency does the source give for `O=C(OCc1cccc(F)c1)c1ccc2c(=O)n3c(nc2c1)CCC3` here?
Answer: The Potency was “inactive”.

Question: For `CCOc1ccc(NC(=S)Nc2ccc(OCC)cc2)cc1`, which Potency is on record?
Answer: The Potency was inconclusive: 1.12 µM [inhibitor, full curve, poor fit].

Question: With `CCOC(=O)N1CCC2(CC1)C(C(=O)C13CC4CC(CC(C4)C1)C3)C2(C#N)C#N` (stereo unspecified) as the compound, how does the Potency read?
Answer: The Potency was inconclusive: 32.6 µM [inhibitor, single point].

Question: For `CCOc1cccc(C(=O)N(Cc2ccc(C)o2)C2CCS(=O)(=O)C2)c1` (stereo unspecified), which Potency is on record?
Answer: The Potency was inconclusive: 8.91 µM [activator, partial curve, poor fit].

Question: Which Potency does the source give for `CCOc1ccc2nc(NCCNC(=O)Nc3cccc(C)c3)c(C#N)cc2c1` here?
Answer: Its Potency is inconclusive: 35.5 µM [inhibitor, single point].

Question: For `CCC(CC)c1nn2c(=O)cc(COc3ccc(NC(=O)c4cccc(C)c4)cc3)nc2s1`, which Potency is on record?
Answer: Its Potency is “inactive”.

Question: For `CCOc1ccc(OCCCC(=O)Nc2nc3ccccc3[nH]2)cc1`, which Potency is on record?
Answer: Its Potency is “inactive”.

Question: Which Potency does the source give for `O=c1oc2ccccc2cc1-c1nnc(NCc2ccco2)s1` here?
Answer: Its Potency is inconclusive: 18.3 µM [inhibitor, partial curve, poor fit].

Question: For `Cc1cc(C(F)(F)F)c(C#N)c(N2CCOCC2)n1`, which Potency is on record?
Answer: Its Potency is inconclusive: 0.282 µM [activator, partial curve, poor fit].

Question: With `[O-][n+]1onc2c3cc(-c4ccccc4)nnc3ccc21` as the compound, how does the Potency read?
Answer: Its Potency is “inactive”.

Question: With `COc1ccc(Cc2nc3ccc(C(=O)N4CCOCC4)cc3o2)cc1` as the compound, how does the Potency read?
Answer: The Potency was “inactive”.

Question: With `Cc1ccc(-n2nnnc2SCC(=O)Nc2nc(-c3ccc(F)cc3)cs2)cc1C` as the compound, how does the Potency read?
Answer: Its Potency is inconclusive: 5.8 µM [inhibitor, partial curve, poor fit].

Question: Which Potency does the source give for `CC1c2cc3c(cc2CCN1C(=O)c1ccc(Cl)cc1)OCCCO3` (stereo unspecified) here?
Answer: Its Potency is inconclusive: 20 µM [inhibitor, partial curve, poor fit].

Question: For `N#C/C(=C\c1cccnc1)c1nc2ccccc2[nH]1`, which Potency is on record?
Answer: The Potency was inconclusive: 5.62 µM [inhibitor, single point].

Question: Which Potency does the source give for `Oc1ccc(-c2cc(-c3ccc(O)cc3)nc(-c3ccccc3)n2)cc1` here?
Answer: Its Potency is inconclusive: 35.5 µM [inhibitor, single point].

Question: With `O=S(=O)(Nc1nc2ccccc2nc1Cl)c1ccc2ccccc2c1` as the compound, how does the Potency read?
Answer: Its Potency is “inactive”.

Question: Which Potency does the source give for `Cc1sc(-n2cccc2)c(C(C)NC(=O)Nc2cccc(C(F)(F)F)c2)c1C` (stereo unspecified) here?
Answer: The Potency was inconclusive: 10 µM [inhibitor, partial curve, poor fit].

Question: Which Potency does the source give for `O=C(Nc1nc2c(s1)CCCC2)c1cc(-c2ccncc2)nc2ccccc12` here?
Answer: The Potency was inconclusive: 6.31 µM [inhibitor, single point].

Question: Which Potency does the source give for `Cc1ccc(S(=O)(=O)N2CC=C(c3c(C)n(CC(=O)N4CCCC4)c4ccccc34)CC2)cc1C` here?
Answer: The Potency was inconclusive: 35.5 µM [inhibitor, single point].

Question: For `CC1(C)C(C=C(Cl)Cl)C1C(=O)N1CCN(Cc2ccccc2)CC1` (stereo unspecified), which Potency is on record?
Answer: Its Potency is inconclusive: 35.5 µM [inhibitor, single point].

Question: With `Cn1nc(C(=O)Nc2ccc(S(=O)(=O)N3CCCCC3)cc2)c2ccccc2c1=O` as the compound, how does the Potency read?
Answer: Its Potency is inconclusive: 12.6 µM [inhibitor, partial curve, poor fit].

Question: For `O=S(=O)(c1ccccc1)N1CCN(C(=S)Nc2ccccc2Cl)CC1`, which Potency is on record?
Answer: The Potency was “inactive”.

Question: With `Cc1ccc(NC(=O)CN2C(=O)S/C(=C\c3cccn3-c3cccc(C(=O)O)c3)C2=O)c(C)c1` as the compound, how does the Potency read?
Answer: The Potency was inconclusive: 0.708 µM [inhibitor, full curve, poor fit].

Question: With `CCCOc1ccc(N2C(=O)CC(N(CCc3ccc(OC)cc3)C(=O)/C=C/C(=O)O)C2=O)cc1` (stereo unspecified) as the compound, how does the Potency read?
Answer: The Potency was inconclusive: 1.78 µM [activator, partial curve, poor fit].

Question: With `Cc1onc(-c2c(F)cccc2Cl)c1C(=O)NCC1COc2ccccc2O1` (stereo unspecified) as the compound, how does the Potency read?
Answer: Its Potency is inconclusive: 35.5 µM [inhibitor, single point].

Question: For `Cc1cccnc1CCNC(=O)C1CCC(=O)N(Cc2cccc(F)c2)C1` (stereo unspecified), which Potency is on record?
Answer: The Potency was “inactive”.

Question: Which Potency does the source give for `CC(SC(C)C(=O)NN=Cc1cccc(Cl)c1)C(=O)NN=Cc1cccc(Cl)c1` (stereo unspecified) here?
Answer: The Potency was inconclusive: 3.55 µM [inhibitor, partial curve, poor fit].

Question: Which Potency does the source give for `O=C(Cc1c[nH]c2ccccc12)N[C@@H](Cc1c[nH]c2ccccc12)C(=O)O` here?
Answer: The Potency was “inactive”.

Question: Which Potency does the source give for `Cc1cccn2c(=O)c(/C=N/O)c(N3CCOCC3)nc12` here?
Answer: The Potency was inconclusive: 3.55 µM [activator, partial curve, poor fit].

Question: For `Cc1c(C(=O)NCc2ccc3c(c2)OCO3)oc2ccc(S(=O)(=O)N3CCCCC3)cc12`, which Potency is on record?
Answer: Its Potency is inconclusive: 29.1 µM [inhibitor, single point].

Question: With `O=C(COc1cccnc1[N+](=O)[O-])NCCc1ccc(Cl)cc1Cl` as the compound, how does the Potency read?
Answer: The Potency was “inactive”.

Question: For `C#CCOc1c(Br)cc(/C=N/O)cc1OCC`, which Potency is on record?
Answer: The Potency was “inactive”.

Question: With `C=CCc1ccccc1OCC(O)CN1CCN(Cc2ccc3c(c2)OCO3)CC1` (stereo unspecified) as the compound, how does the Potency read?
Answer: Its Potency is inconclusive: 35.5 µM [inhibitor, single point] and inconclusive: 18.3 µM [inhibitor, single point].

Question: Which Potency does the source give for `COc1cc2c(cc1OC)CN(c1ncccc1[N+](=O)[O-])CC2` here?
Answer: The Potency was inconclusive: 7.08 µM [activator, full curve].

Question: Which Potency does the source give for `O=C(CCN1CCOCC1)NCC1COc2ccccc2O1` (stereo unspecified) here?
Answer: Its Potency is inconclusive: 35.5 µM [activator, single point].

Question: Which Potency does the source give for `CCCc1c(C(=O)NNc2ccc(C)cc2)cnn1-c1ccccc1` here?
Answer: The Potency was inconclusive: 1.78 µM [inhibitor, full curve, poor fit].

Question: With `c1ccc(Cc2nc3ccccc3o2)cc1` as the compound, how does the Potency read?
Answer: The Potency was inconclusive: 29.1 µM [activator, single point].

Question: For `Cc1ccc(C(=O)Nc2nc3ccc(S(C)(=O)=O)cc3s2)o1`, which Potency is on record?
Answer: Its Potency is “inactive”.

Question: For `COc1cccc(NC(=O)CCC(=O)Nc2ccc3nc(N4CCOCC4)cc(C)c3c2)c1`, which Potency is on record?
Answer: Its Potency is inconclusive: 35.5 µM [inhibitor, single point].

Question: Which Potency does the source give for `CC[n+]1c(/C=C/C=C/N(C(C)=O)c2ccccc2)sc2ccccc21` here?
Answer: The Potency was inconclusive: 12.6 µM [inhibitor, single point].

Question: With `O=C1C(SCCO)=C(SCCO)C(=O)c2ccccc21` as the compound, how does the Potency read?
Answer: Its Potency is active: 3.98 µM.

Question: For `CCOC(=O)CC1ON(C)C(=O)N1c1ccc(Cl)cc1Cl` (stereo unspecified), which Potency is on record?
Answer: The Potency was inconclusive: 35.5 µM [activator, partial curve, poor fit].

Question: Which Potency does the source give for `Cc1cc(C(=O)NCCC2=CCCCC2)no1` here?
Answer: The Potency was inconclusive: 11.2 µM [activator, single point].

Question: For `Cc1cc(N2CCOCC2)nc2ccc(NC(=O)CCC(=O)N3CCN(c4ccccc4)CC3)cc12`, which Potency is on record?
Answer: Its Potency is “inactive”.

Question: With `CC(C)(C)c1ccc(-c2nc(C#N)c(NCc3ccncc3)o2)cc1` as the compound, how does the Potency read?
Answer: Its Potency is inconclusive: 11.6 µM [activator, partial curve].

Question: For `CC(=O)N1c2ccc(S(=O)(=O)N3CCCC(C(=O)NCc4ccccc4Cl)C3)cc2CC1C` (stereo unspecified), which Potency is on record?
Answer: The Potency was inconclusive: 2.82 µM [inhibitor, full curve, poor fit].
